Results deposited as PubChem BioAssay AID493246 (Drosophila RNAi Screening Center, 2011).
In all, the deposit lists about 21,000 reagents; this is a random part of those that have a named target and a result. Of all reagents, 429 (2%) are marked active. 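Values are raw and not normalised between plates; calls rest on per-plate z-scores that were not deposited.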 Entries without a mark were called inactive. Names joined by + are all predicted targets of the reagent. Not stated in the record: the amount of reagent, the time to read-out.

Aim: 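Genes fly cells need to grow and stay alive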 (primary screen)
Cell system: Drosophila Kc and S2R+ cells
Reagents: long dsRNA against Drosophila genes
Measurement: 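Cell number per well after knock-down, printed as raw plate values; calls were based on per-plate z-scores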
Direction: Kc cell number and S2R+ cell number: higher = more cells remaining
Rule for the call: 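Counted as a hit if cell number falls by a z-score of at least 3 within its plate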

Wdr33 (GeneID 40698) [DRSC12162] → Kc cell number, rep 1: 1.43e6; Kc cell number, rep 2: 1.56e6; S2R+ cell number, rep 1: 1.24e6; S2R+ cell number, rep 2: 1.27e6
Ag5r2 (GeneID 44079) [DRSC19328] → Kc cell number, rep 1: 1.46e6; Kc cell number, rep 2: 1.48e6; S2R+ cell number, rep 1: 1.09e6; S2R+ cell number, rep 2: 1.14e6
AsnS (GeneID 2768965) [DRSC11468] → Kc cell number, rep 1: 1.40e6; Kc cell number, rep 2: 1.37e6; S2R+ cell number, rep 1: 9.85e5; S2R+ cell number, rep 2: 1.13e6
Golgin245 (GeneID 37702) [DRSC04374] → Kc cell number, rep 1: 1.50e6; Kc cell number, rep 2: 1.66e6; S2R+ cell number, rep 1: 1.09e6; S2R+ cell number, rep 2: 1.17e6
CG16984 (GeneID 38322) [DRSC08500] → Kc cell number, rep 1: 1.39e6; Kc cell number, rep 2: 1.17e6; S2R+ cell number, rep 1: 1.00e6; S2R+ cell number, rep 2: 1.27e6
CG15255 (GeneID 34913) [DRSC01869] → Kc cell number, rep 1: 1.50e6; Kc cell number, rep 2: 1.55e6; S2R+ cell number, rep 1: 1.12e6; S2R+ cell number, rep 2: 1.24e6
CG42580 (GeneID 8673961) [DRSC20397] → Kc cell number, rep 1: 1.32e6; Kc cell number, rep 2: 1.49e6; S2R+ cell number, rep 1: 1.06e6; S2R+ cell number, rep 2: 1.19e6
PolZ1 (GeneID 47186) [DRSC06800] → Kc cell number, rep 1: 1.35e6; Kc cell number, rep 2: 1.46e6; S2R+ cell number, rep 1: 1.01e6; S2R+ cell number, rep 2: 1.03e6
Eip63F-1 (GeneID 47878) [DRSC08072] → Kc cell number, rep 1: 1.48e6; Kc cell number, rep 2: 1.45e6; S2R+ cell number, rep 1: 1.01e6; S2R+ cell number, rep 2: 1.14e6
Eip63F-1 (GeneID 47878) [DRSC08659] → Kc cell number, rep 1: 1.67e6; Kc cell number, rep 2: 1.66e6; S2R+ cell number, rep 1: 1.06e6; S2R+ cell number, rep 2: 1.51e6
elm (GeneID 40695) [DRSC12309] → Kc cell number, rep 1: 1.48e6; Kc cell number, rep 2: 1.55e6; S2R+ cell number, rep 1: 1.20e6; S2R+ cell number, rep 2: 1.19e6
Frl (GeneID 39561) [DRSC09300] → Kc cell number, rep 1: 1.39e6; Kc cell number, rep 2: 1.43e6; S2R+ cell number, rep 1: 1.04e6; S2R+ cell number, rep 2: 1.28e6
Frl (GeneID 39561) [DRSC10027] → Kc cell number, rep 1: 1.50e6; Kc cell number, rep 2: 1.56e6; S2R+ cell number, rep 1: 1.26e6; S2R+ cell number, rep 2: 1.45e6
Frl (GeneID 39561) [DRSC10716] → Kc cell number, rep 1: 1.41e6; Kc cell number, rep 2: 1.45e6; S2R+ cell number, rep 1: 9.78e5; S2R+ cell number, rep 2: 1.16e6
CG33155 + mRpL53 [DRSC05461] → Kc cell number, rep 1: 1.49e6; Kc cell number, rep 2: 1.43e6; S2R+ cell number, rep 1: 9.00e5; S2R+ cell number, rep 2: 1.12e6
Start1 (GeneID 37927) [DRSC04384] → Kc cell number, rep 1: 1.74e6; Kc cell number, rep 2: 1.82e6; S2R+ cell number, rep 1: 1.25e6; S2R+ cell number, rep 2: 1.32e6
CG5665 (GeneID 40243) [DRSC11783] → Kc cell number, rep 1: 1.75e6; Kc cell number, rep 2: 1.82e6; S2R+ cell number, rep 1: 1.44e6; S2R+ cell number, rep 2: 1.55e6
CG10417 (GeneID 35492) [DRSC04846] → Kc cell number, rep 1: 1.50e6; Kc cell number, rep 2: 1.52e6; S2R+ cell number, rep 1: 1.05e6; S2R+ cell number, rep 2: 1.12e6
CG34022 (retired record) (GeneID 3885663) [DRSC07949] → Kc cell number, rep 1: 1.43e6; Kc cell number, rep 2: 1.39e6; S2R+ cell number, rep 1: 9.89e5; S2R+ cell number, rep 2: 1.11e6
CG9416 (GeneID 37223) [DRSC07339] → Kc cell number, rep 1: 1.66e6; Kc cell number, rep 2: 1.75e6; S2R+ cell number, rep 1: 1.35e6; S2R+ cell number, rep 2: 1.55e6
CG13323 (GeneID 36433) [DRSC06360] → Kc cell number, rep 1: 1.50e6; Kc cell number, rep 2: 1.46e6; S2R+ cell number, rep 1: 1.21e6; S2R+ cell number, rep 2: 1.28e6

3 of these entries, set out differently:
target	dsRNA	Kc cell number, rep 1	Kc cell number, rep 2	S2R+ cell number, rep 1	S2R+ cell number, rep 2
Eip63F-1 (GeneID 47878)	DRSC08659	1.67e6	1.66e6	1.06e6	1.51e6
elm (GeneID 40695)	DRSC12309	1.48e6	1.55e6	1.20e6	1.19e6
Frl (GeneID 39561)	DRSC09300	1.39e6	1.43e6	1.04e6	1.28e6
